Source: PMC9008731

Amino acid sequences for entries named in this document (tags omitted).
UniProt Q7KZF4: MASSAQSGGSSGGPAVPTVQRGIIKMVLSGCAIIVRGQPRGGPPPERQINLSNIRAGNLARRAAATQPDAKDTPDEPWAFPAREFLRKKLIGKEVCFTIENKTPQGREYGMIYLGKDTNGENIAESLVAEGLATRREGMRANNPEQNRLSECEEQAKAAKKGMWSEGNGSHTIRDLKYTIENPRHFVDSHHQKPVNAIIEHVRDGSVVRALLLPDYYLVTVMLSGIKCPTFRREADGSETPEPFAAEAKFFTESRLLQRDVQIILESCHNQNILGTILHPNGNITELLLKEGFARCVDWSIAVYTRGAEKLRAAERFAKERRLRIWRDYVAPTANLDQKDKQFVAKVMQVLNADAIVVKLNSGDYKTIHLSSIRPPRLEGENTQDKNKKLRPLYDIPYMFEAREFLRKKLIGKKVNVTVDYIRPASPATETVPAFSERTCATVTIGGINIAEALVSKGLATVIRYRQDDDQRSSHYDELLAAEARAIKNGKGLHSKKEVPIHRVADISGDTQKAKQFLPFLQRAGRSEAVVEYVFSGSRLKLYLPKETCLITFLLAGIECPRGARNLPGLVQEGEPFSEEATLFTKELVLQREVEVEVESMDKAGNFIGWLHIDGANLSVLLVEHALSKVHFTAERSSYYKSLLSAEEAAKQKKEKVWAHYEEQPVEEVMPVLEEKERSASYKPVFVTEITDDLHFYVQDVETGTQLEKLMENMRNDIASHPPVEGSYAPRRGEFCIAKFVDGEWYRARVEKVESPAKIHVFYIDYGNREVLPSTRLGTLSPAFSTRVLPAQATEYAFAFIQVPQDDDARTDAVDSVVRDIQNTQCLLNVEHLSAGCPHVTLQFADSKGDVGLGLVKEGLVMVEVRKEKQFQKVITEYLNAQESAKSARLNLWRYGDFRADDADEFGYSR

Target: Flag-SND1, full-length (WT) (UniProt Q7KZF4)
Assay: affinity purification with mass spectrometry; PLC cells overexpressing Flag-tagged SND1; anti-Flag IP from purified mitochondrial lysates, LC-MS; fold change > 1.5 against the EV control

B1: HACD3, endogenous in PLC cells (protein, UniProt Q9P035 1-362)
chain: MENQVLTPHVYWAQRHRELYLRVELSDVQNPAISITENVLHFKAQGHGAKGDNVYEFHLEFLDLVKPEPVYKLTQRQVNITVQKKVSQWWERLTKQEKRPLFLAPDFDRWLDESDAEMELRAKEEERLNKLRLESEGSPETLTNLRKGYLFMYNLVQFLGFSWIFVNLTVRFCILGKESFYDTFHTVADMMYFCQMLAVVETINAAIGVTTSPVLPSLIQLLGRNFILFIIFGTMEEMQNKAVVFFVFYLWSAIEIFRYSFYMLTCIDMDWKVLTWLRYTLWIPLYPLGCLAEAVSVIQSIPIFNETGRFSFTLPYPVKIKVRFSFFLQIYLIMIFLGLYINFRHLYKQRRRRYGQKKKKIH
- binding: binds

B2: GOT2, endogenous in PLC cells (protein, UniProt P00505 30-430)
chain: SSWWTHVEMGPPDPILGVTEAFKRDTNSKKMNLGVGAYRDDNGKPYVLPSVRKAEAQIAAKNLDKEYLPIGGLAEFCKASAELALGENSEVLKSGRFVTVQTISGTGALRIGASFLQRFFKFSRDVFLPKPTWGNHTPIFRDAGMQLQGYRYYDPKTCGFDFTGAVEDISKIPEQSVLLLHACAHNPTGVDPRPEQWKEIATVVKKRNLFAFFDMAYQGFASGDGDKDAWAVRHFIEQGINVCLCQSYAKNMGLYGERVGAFTMVCKDADEAKRVESQLKILIRPMYSNPPLNGARIAAAILNTPDLRKQWLQEVKVMADRIIGMRTQLVSNLKKEGSTHNWQHITDQIGMFCFTGLKPEQVERLIKEFSIYMTKDGRISVAGVTSSNVGYLAHAIHQVTK
- binding: binds

These are yes or no findings as the source states them, for the method shown. Binding seen in cells or lysates may run through a third protein. These calls come from enrichment with a bait or labelling near it, and not all partners need be listed.
